Laboratory results: PubChem BioAssay AID1259425 (University of Nebraska Medical Center, 2018)

Test: 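Seek colon cancer weak points whose silencing resembles KSR1 loss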 (primary screen)
Cell system: HCT116 human colon cancer cells
Reagents: siRNA pool against human genes, 50 nM siRNA
Measurement: 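After 50 nM siRNA pool, branched-DNA assay measures six marker transcripts per well, minus blank, normalised to the geometric mean of two housekeeping transcripts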
Reading the numbers: BNIP3L mRNA: higher = more BNIP3L transcript after knockdown
Here is a random part of about 14,000 reagents tested. Some reagents were tested in more than one well and are listed for each. Further read-outs or replicates are left out here. Not given: the time to read-out.

For MOAP1 (GeneID 64112), the entry reads BNIP3L mRNA, set 1 = 0.134.
MOAP1 (GeneID 64112) showed BNIP3L mRNA, set 1 = 0.136.
With knock-down of L2HGDH (GeneID 79944) the results were BNIP3L mRNA, set 1 = 0.0976.
MYH3 (GeneID 4621) showed BNIP3L mRNA, set 1 = 0.0746.
Against RSPH6A (GeneID 81492), the entry reads BNIP3L mRNA, set 1 = 0.178.
Against TMED7 (GeneID 51014), the entry reads BNIP3L mRNA, set 1 = 0.134.
With knock-down of BOP1 (GeneID 23246) the results were BNIP3L mRNA, set 1 = 0.238.
With knock-down of FDFT1 (GeneID 2222), the record shows BNIP3L mRNA, set 1 = 0.125.
Knock-down of ZNF180 (GeneID 7733) resulted in: BNIP3L mRNA, set 1 = 0.121.
Knock-down of ANKRD27 (GeneID 84079) gave: BNIP3L mRNA, set 1 = 0.395.
HLA-E (GeneID 3133) gave BNIP3L mRNA, set 1 = 0.0645.
Knock-down of PRRX1 (GeneID 5396) resulted in: BNIP3L mRNA, set 1 = 0.083.
PPME1 (GeneID 51400) gave BNIP3L mRNA, set 1 = 0.07.
UBXN4 (GeneID 23190) scored BNIP3L mRNA, set 1 = 0.114.
Against GEMIN8 (GeneID 54960), the entry reads BNIP3L mRNA, set 1 = 0.0413.

2 entries already listed, arranged by “BNIP3L mRNA, set 1”, low to high.
ZNF180 (GeneID 7733) — BNIP3L mRNA, set 1: 0.121
FDFT1 (GeneID 2222) — BNIP3L mRNA, set 1: 0.125

Continued:
Against RPS6KC1 (GeneID 26750) the deposit lists BNIP3L mRNA, set 1 = 0.221.
Silencing of CELF3 (GeneID 11189) gave: BNIP3L mRNA, set 1 = 0.112.
FLT1 (GeneID 2321) showed BNIP3L mRNA, set 1 = 0.334.
Against ZNHIT6 (GeneID 54680) the deposit lists BNIP3L mRNA, set 1 = 0.0901.
Against RACGAP1P1 (GeneID 83956), the entry reads BNIP3L mRNA, set 1 = 0.354.
HRC (GeneID 3270) gave BNIP3L mRNA, set 1 = 0.116.
Knock-down of SH2D1A (GeneID 4068) came out at: BNIP3L mRNA, set 1 = 0.108.
CAMSAP3 (GeneID 57662) scored BNIP3L mRNA, set 1 = 0.105.
Silencing of CIAPIN1 (GeneID 57019) gave: BNIP3L mRNA, set 1 = 0.208.
With knock-down of EPHA6 (GeneID 285220) the results were BNIP3L mRNA, set 1 = 0.0356.
Silencing of MLLT10 (GeneID 8028) resulted in: BNIP3L mRNA, set 1 = 0.0881.
Silencing of CRH (GeneID 1392) came out at: BNIP3L mRNA, set 1 = 0.0752.
Against ZNF702P (GeneID 79986), the values are BNIP3L mRNA, set 1 = 0.14.
